Assay results: article doi:10.1101/235101
Results are given in words; binding and its absence hold for the method and conditions named. Binding seen in cells or lysates may run through a third protein. Some results given as binding are weak or reduced against the parent protein; the word gives no strength.

Protein sequences, listed by entry. Tags and fused reporters are not part of them. Lines headed by an entry give the natural chain unless they say otherwise; changes in a name come on top.
UniProt Q80V94: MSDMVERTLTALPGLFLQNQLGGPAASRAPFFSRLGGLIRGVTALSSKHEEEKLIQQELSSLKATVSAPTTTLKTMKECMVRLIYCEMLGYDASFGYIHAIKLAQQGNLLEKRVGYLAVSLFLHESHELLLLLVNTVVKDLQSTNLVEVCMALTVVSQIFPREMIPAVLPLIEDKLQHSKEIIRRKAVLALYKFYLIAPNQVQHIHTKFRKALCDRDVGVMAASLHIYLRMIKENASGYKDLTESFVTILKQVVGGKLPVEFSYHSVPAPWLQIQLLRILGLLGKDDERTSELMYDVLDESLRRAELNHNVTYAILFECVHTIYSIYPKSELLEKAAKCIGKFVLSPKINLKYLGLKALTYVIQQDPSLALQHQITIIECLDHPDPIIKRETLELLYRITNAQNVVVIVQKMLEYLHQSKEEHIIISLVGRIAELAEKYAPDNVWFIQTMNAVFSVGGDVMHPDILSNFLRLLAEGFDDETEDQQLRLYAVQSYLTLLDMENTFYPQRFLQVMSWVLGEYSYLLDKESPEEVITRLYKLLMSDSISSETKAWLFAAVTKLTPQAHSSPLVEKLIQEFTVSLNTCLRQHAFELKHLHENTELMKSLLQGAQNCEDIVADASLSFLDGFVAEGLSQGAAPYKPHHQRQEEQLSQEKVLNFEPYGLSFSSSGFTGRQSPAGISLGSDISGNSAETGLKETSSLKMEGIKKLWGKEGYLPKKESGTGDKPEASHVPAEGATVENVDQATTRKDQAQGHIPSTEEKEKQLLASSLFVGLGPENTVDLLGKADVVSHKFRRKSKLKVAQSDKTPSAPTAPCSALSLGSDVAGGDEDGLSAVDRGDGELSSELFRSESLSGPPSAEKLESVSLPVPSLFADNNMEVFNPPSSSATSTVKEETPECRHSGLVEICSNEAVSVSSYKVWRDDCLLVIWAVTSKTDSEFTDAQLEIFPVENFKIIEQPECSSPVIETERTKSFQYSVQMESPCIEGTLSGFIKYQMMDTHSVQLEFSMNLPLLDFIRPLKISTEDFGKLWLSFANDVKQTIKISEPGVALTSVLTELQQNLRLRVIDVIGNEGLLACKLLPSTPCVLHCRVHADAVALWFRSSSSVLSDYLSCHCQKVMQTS

Target: T1, ATG9A (mouse (endogenous in mouse brain)) (UniProt Q68FE2)
T1 sequence: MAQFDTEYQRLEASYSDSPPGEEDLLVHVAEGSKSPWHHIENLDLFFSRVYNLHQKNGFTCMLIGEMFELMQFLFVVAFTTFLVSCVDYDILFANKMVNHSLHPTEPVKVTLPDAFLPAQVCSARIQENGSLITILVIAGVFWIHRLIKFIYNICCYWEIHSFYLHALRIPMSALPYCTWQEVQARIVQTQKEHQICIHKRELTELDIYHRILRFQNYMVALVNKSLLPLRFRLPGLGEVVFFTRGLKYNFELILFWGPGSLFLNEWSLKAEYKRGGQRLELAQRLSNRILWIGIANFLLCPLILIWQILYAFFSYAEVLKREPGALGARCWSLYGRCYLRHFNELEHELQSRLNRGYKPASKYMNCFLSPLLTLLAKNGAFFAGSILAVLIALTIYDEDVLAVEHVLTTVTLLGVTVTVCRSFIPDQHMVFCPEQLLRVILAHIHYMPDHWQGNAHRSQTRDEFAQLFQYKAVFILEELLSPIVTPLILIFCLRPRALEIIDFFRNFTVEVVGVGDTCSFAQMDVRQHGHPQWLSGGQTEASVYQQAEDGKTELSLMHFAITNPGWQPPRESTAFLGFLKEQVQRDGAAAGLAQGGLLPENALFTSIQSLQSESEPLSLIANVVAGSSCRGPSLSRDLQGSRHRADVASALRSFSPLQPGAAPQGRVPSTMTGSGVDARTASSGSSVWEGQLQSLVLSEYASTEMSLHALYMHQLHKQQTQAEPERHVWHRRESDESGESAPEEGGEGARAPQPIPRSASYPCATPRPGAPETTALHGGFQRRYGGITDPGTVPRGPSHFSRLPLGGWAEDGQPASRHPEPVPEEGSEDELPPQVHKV
Experiment: co-IP

- binding: binds
Substance: AP-4 complex (from UniProt Q80V94 1-1122; Q9WV76 1-738; Q9JKC7 1-449; Q9WVL1 1-144)
